# Laboratory results from the supplement of paper PMC8728848.
# This is one part of the list.
# Legend:
# Test in all cases: glycan array binding signal (z-score within array); higher = stronger binding
# Details in all cases: glycan notation: IUPAC condensed, linker removed
# [1] = target: Fuc(a1-3)[Gal3S(b1-4)]GlcNAc6S
# Method in brief: (§1)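 Glycan array data were curated from 3228 arrays in the Consortium for Functional Glycomics database and kept only where the protein sequence was available. Glycan names were converted to IUPAC-condensed notation, and columns mapping to the same glycan were averaged. The binding signal is a within-array Z-score, averaged across arrays of the same protein sequence at different concentrations or buffers and across linkers. Negative Z-scores can be read as non-binding.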
# [2] = target: Fuc(a1-3)[GalNAc(b1-4)]GlcNAc
# Method in brief: as §1
# [3] = target: Fuc(a1-3)[GalNAc(b1-4)]GlcNAc6S
# Method in brief: as §1
# Fuc(a1-4)GlcNAc = target: Fuc(a1-4)GlcNAc
# Method in brief: as §1
# Fuc(b1-3)GlcNAc = target: Fuc(b1-3)GlcNAc
# Method in brief: as §1
# Gal(a1-2)Gal = target: Gal(a1-2)Gal
# Method in brief: as §1
# Gal(a1-3)Gal = target: Gal(a1-3)Gal
# Method in brief: as §1
# Gal(a1-3)Gal(b1-3)GlcNAc = target: Gal(a1-3)Gal(b1-3)GlcNAc
# Method in brief: as §1
# [4] = target: Gal(a1-3)Gal(b1-3)GlcNAc(b1-2)Man
# Method in brief: as §1
# [5] = target: Gal(a1-3)Gal(b1-3)GlcNAc(b1-2)Man(a1-3)[Gal(a1-3)Gal(b1-3)GlcNAc(b1-2)Man(a1-6)]Man(b1-4)GlcNAc(b1-4)GlcNAc
# Method in brief: as §1
# [6] = target: Gal(a1-3)Gal(b1-3)GlcNAc(b1-3)GalNAc
# Method in brief: as §1
# [7] = target: Gal(a1-3)Gal(b1-3)GlcNAc(b1-6)GalNAc
# Method in brief: as §1
# [8] = target: Gal(a1-3)Gal(b1-3)[Fuc(a1-4)]GlcNAc(b1-2)Man(a1-3)[Gal(a1-3)Gal(b1-3)[Fuc(a1-4)]GlcNAc(b1-2)Man(a1-6)]Man(b1-4)GlcNAc(b1-4)GlcNAc
# Method in brief: as §1
# Gal(a1-3)Gal(b1-4)Glc = target: Gal(a1-3)Gal(b1-4)Glc
# Method in brief: as §1
# Gal(a1-3)Gal(b1-4)GlcNAc = target: Gal(a1-3)Gal(b1-4)GlcNAc
# Method in brief: as §1
# [9] = target: Gal(a1-3)Gal(b1-4)GlcNAc(b1-2)Man
# Method in brief: as §1
# [10] = target: Gal(a1-3)Gal(b1-4)GlcNAc(b1-2)Man(a1-3)[Gal(a1-3)Gal(b1-4)GlcNAc(b1-2)Man(a1-6)]Man(b1-4)GlcNAc(b1-4)GlcNAc
# Method in brief: as §1
# [11] = target: Gal(a1-3)Gal(b1-4)GlcNAc(b1-3)GalNAc
# Method in brief: as §1
# [12] = target: Gal(a1-3)Gal(b1-4)GlcNAc(b1-6)GalNAc
# Method in brief: as §1
# [13] = target: Gal(a1-3)Gal(b1-4)[Fuc(a1-3)]GlcNAc
# Method in brief: as §1
# [14] = target: Gal(a1-3)Gal(b1-4)[Fuc(a1-3)]GlcNAc(b1-2)Man(a1-3)[Gal(a1-3)Gal(b1-4)[Fuc(a1-3)]GlcNAc(b1-2)Man(a1-6)]Man(b1-4)GlcNAc(b1-4)GlcNAc
# Method in brief: as §1
# Gal(a1-3)GalNAc = target: Gal(a1-3)GalNAc
# Method in brief: as §1
# [15] = target: Gal(a1-3)[Gal(a1-4)]Gal(b1-4)GlcNAc
# Method in brief: as §1
# [16] = target: Gal(a1-4)Gal(b1-3)GlcNAc(b1-2)Man(a1-3)[Gal(a1-4)Gal(b1-3)GlcNAc(b1-2)Man(a1-6)]Man(b1-4)GlcNAc(b1-4)GlcNAc
# Method in brief: as §1
# Gal(a1-4)Gal(b1-4)Glc = target: Gal(a1-4)Gal(b1-4)Glc
# Method in brief: as §1
# Gal(a1-4)Gal(b1-4)GlcNAc = target: Gal(a1-4)Gal(b1-4)GlcNAc
# Method in brief: as §1
# [17] = target: Gal(a1-4)Gal(b1-4)GlcNAc(b1-2)Man(a1-3)[Gal(a1-4)Gal(b1-4)GlcNAc(b1-2)Man(a1-6)]Man(b1-4)GlcNAc(b1-4)GlcNAc
# Method in brief: as §1
# [18] = target: Gal(a1-4)Gal(b1-4)GlcNAc(b1-3)Gal(b1-4)Glc
# Method in brief: as §1
# Gal(a1-4)GlcNAc = target: Gal(a1-4)GlcNAc
# Method in brief: as §1
# Gal(a1-6)Glc = target: Gal(a1-6)Glc
# Method in brief: as §1
# Gal(b1-2)Gal = target: Gal(b1-2)Gal
# Method in brief: as §1
# Gal(b1-3)Gal = target: Gal(b1-3)Gal
# Method in brief: as §1
# Gal(b1-3)Gal(b1-4)GlcNAc = target: Gal(b1-3)Gal(b1-4)GlcNAc
# Method in brief: as §1
# Gal(b1-3)GalNAc = target: Gal(b1-3)GalNAc
# Method in brief: as §1
# [19] = target: Gal(b1-3)GalNAc(a1-3)[Fuc(a1-2)]Gal(b1-4)Glc
# Method in brief: as §1
# [20] = target: Gal(b1-3)GalNAc(a1-3)[Fuc(a1-2)]Gal(b1-4)GlcNAc
# Method in brief: as §1
# Gal(b1-3)GalNAc(b1-3)Gal = target: Gal(b1-3)GalNAc(b1-3)Gal
# Method in brief: as §1
# [21] = target: Gal(b1-3)GalNAc(b1-3)Gal(a1-4)Gal(b1-4)Glc
# Method in brief: as §1
# [22] = target: Gal(b1-3)GalNAc(b1-4)Gal(b1-4)Glc
# Method in brief: as §1
# [23] = target: Gal(b1-3)GalNAc(b1-4)[Neu5Ac(a2-3)]Gal(b1-4)Glc
# Method in brief: as §1
# Gal(b1-3)GlcNAc = target: Gal(b1-3)GlcNAc
# Method in brief: as §1
# [24] = target: Gal(b1-3)GlcNAc(a1-3)Gal(b1-4)GlcNAc
# Method in brief: as §1
# [25] = target: Gal(b1-3)GlcNAc(a1-6)Gal(b1-4)GlcNAc
# Method in brief: as §1
# Gal(b1-3)GlcNAc(b1-2)Man = target: Gal(b1-3)GlcNAc(b1-2)Man
# Method in brief: as §1
# [26] = target: Gal(b1-3)GlcNAc(b1-2)Man(a1-3)[Gal(b1-3)GlcNAc(b1-2)Man(a1-6)]Man(b1-4)GlcNAc(b1-4)GlcNAc
# Method in brief: as §1
binder,measurement,setting,value
"AntigenI/IIA3VP1 (Streptococcus mutans), C9E3B4 (protein) AANEADYQAKLTAYQTELARVQKANADAKAAYEAAVAANNAANAALTAENTAIKKRNADAKADYEAKLAKYQADLAKYQKDLADYPVKLKAYEDEQASIKAALAELEKHKNEDGNLTEPSAQNLVYDLEPNANLSLTTDGKFLKASAVDDAFSKSTSKAKYDQKILQLDDLDITNLEQSNDVASSMELYGNFGDKAGWSTTVSNNSQVKWGSVLLERGQSATATYTNLQNSYYNGKKISKIVYKYTVDPKSKFQGQKVWLGIFTDPTLGVFASAYTGQVEKNTSIFIKNEFTFYDEDGKPINFDNALLSVASLNREHNSIEMAKDYSGKFVKISGSSIGEKNGMIYATDTLNFKQGEGGSRWTMYKNSQAGSGWDSSDAPNSWYGAGAIKMSGPNNYVTVGATSATNVMPVSDMPVVPGKDNTDGKKPNIWYSLNGKIRAVNVPKVTKEKPTPPVKPTAPTKPTYETEKPLKPAPVAPNYEKEPTPPTRLEHHHHHH",glycan array binding signal (z-score),[1],1.19
same,glycan array binding signal (z-score),[2],0.932
same,glycan array binding signal (z-score),[3],-0.39
same,glycan array binding signal (z-score),Fuc(a1-4)GlcNAc,-0.388
same,glycan array binding signal (z-score),Fuc(b1-3)GlcNAc,-0.59
same,glycan array binding signal (z-score),Gal(a1-2)Gal,-0.596
same,glycan array binding signal (z-score),Gal(a1-3)Gal,-0.197
same,glycan array binding signal (z-score),Gal(a1-3)Gal(b1-3)GlcNAc,-0.563
same,glycan array binding signal (z-score),[4],-0.641
same,glycan array binding signal (z-score),[5],3.47
same,glycan array binding signal (z-score),[6],2.79
same,glycan array binding signal (z-score),[7],0.993
same,glycan array binding signal (z-score),[8],0.369
same,glycan array binding signal (z-score),Gal(a1-3)Gal(b1-4)Glc,-0.763
same,glycan array binding signal (z-score),Gal(a1-3)Gal(b1-4)GlcNAc,-0.983
same,glycan array binding signal (z-score),[9],-0.102
same,glycan array binding signal (z-score),[10],1.55
same,glycan array binding signal (z-score),[11],-1.15
same,glycan array binding signal (z-score),[12],-0.128
same,glycan array binding signal (z-score),[13],-1.04
same,glycan array binding signal (z-score),[14],0.993
same,glycan array binding signal (z-score),Gal(a1-3)GalNAc,1.36
same,glycan array binding signal (z-score),[15],0.241
same,glycan array binding signal (z-score),[16],2.06
same,glycan array binding signal (z-score),Gal(a1-4)Gal(b1-4)Glc,0.901
same,glycan array binding signal (z-score),Gal(a1-4)Gal(b1-4)GlcNAc,-0.269
same,glycan array binding signal (z-score),[17],-0.011
same,glycan array binding signal (z-score),[18],-0.067
same,glycan array binding signal (z-score),Gal(a1-4)GlcNAc,-0.879
same,glycan array binding signal (z-score),Gal(a1-6)Glc,-0.191
same,glycan array binding signal (z-score),Gal(b1-2)Gal,-0.551
same,glycan array binding signal (z-score),Gal(b1-3)Gal,0.084
same,glycan array binding signal (z-score),Gal(b1-3)Gal(b1-4)GlcNAc,-0.051
same,glycan array binding signal (z-score),Gal(b1-3)GalNAc,-0.409
same,glycan array binding signal (z-score),[19],1.01
same,glycan array binding signal (z-score),[20],0.078
same,glycan array binding signal (z-score),Gal(b1-3)GalNAc(b1-3)Gal,-0.621
same,glycan array binding signal (z-score),[21],0.438
same,glycan array binding signal (z-score),[22],-0.798
same,glycan array binding signal (z-score),[23],-0.732
same,glycan array binding signal (z-score),Gal(b1-3)GlcNAc,0.211
same,glycan array binding signal (z-score),[24],-0.674
same,glycan array binding signal (z-score),[25],0.451
same,glycan array binding signal (z-score),Gal(b1-3)GlcNAc(b1-2)Man,-0.152
same,glycan array binding signal (z-score),[26],0.099

# Looked up one by one from the entries so far (two):
binder,measurement,setting,value
"AntigenI/IIA3VP1 (Streptococcus mutans), C9E3B4 (protein) AANEADYQAKLTAYQTELARVQKANADAKAAYEAAVAANNAANAALTAENTAIKKRNADAKADYEAKLAKYQADLAKYQKDLADYPVKLKAYEDEQASIKAALAELEKHKNEDGNLTEPSAQNLVYDLEPNANLSLTTDGKFLKASAVDDAFSKSTSKAKYDQKILQLDDLDITNLEQSNDVASSMELYGNFGDKAGWSTTVSNNSQVKWGSVLLERGQSATATYTNLQNSYYNGKKISKIVYKYTVDPKSKFQGQKVWLGIFTDPTLGVFASAYTGQVEKNTSIFIKNEFTFYDEDGKPINFDNALLSVASLNREHNSIEMAKDYSGKFVKISGSSIGEKNGMIYATDTLNFKQGEGGSRWTMYKNSQAGSGWDSSDAPNSWYGAGAIKMSGPNNYVTVGATSATNVMPVSDMPVVPGKDNTDGKKPNIWYSLNGKIRAVNVPKVTKEKPTPPVKPTAPTKPTYETEKPLKPAPVAPNYEKEPTPPTRLEHHHHHH",glycan array binding signal (z-score),[11],-1.15
same,glycan array binding signal (z-score),[24],-0.674
